{"sequences": {"note": "The chains behind the UniProt entries cited, without tags or fusion partners. Where a name states a change or a piece, a line headed by the entry shows the natural chain unless it says otherwise.", "UniProt P18054": "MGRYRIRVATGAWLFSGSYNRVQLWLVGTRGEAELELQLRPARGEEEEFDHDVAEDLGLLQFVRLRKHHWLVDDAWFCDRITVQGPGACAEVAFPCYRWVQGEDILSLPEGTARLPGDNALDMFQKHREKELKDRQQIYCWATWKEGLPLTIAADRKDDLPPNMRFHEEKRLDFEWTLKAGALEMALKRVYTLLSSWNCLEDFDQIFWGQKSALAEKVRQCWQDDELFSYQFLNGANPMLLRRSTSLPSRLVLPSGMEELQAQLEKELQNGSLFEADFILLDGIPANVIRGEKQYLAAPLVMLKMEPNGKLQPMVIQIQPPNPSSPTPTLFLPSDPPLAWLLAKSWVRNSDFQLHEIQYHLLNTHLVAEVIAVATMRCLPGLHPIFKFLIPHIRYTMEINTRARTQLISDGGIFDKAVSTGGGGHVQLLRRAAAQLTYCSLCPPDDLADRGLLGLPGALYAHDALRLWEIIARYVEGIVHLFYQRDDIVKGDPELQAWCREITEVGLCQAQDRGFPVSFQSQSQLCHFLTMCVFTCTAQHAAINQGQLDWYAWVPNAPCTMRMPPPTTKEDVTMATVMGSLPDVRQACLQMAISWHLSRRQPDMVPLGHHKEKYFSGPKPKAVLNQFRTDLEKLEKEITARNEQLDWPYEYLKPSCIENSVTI"}, "source": "PubChem BioAssay AID1671190", "about": "(National Center for Advancing Translational Sciences (NCATS), 2021)", "note": "The campaign covered roughly 580,000 compounds. About 6,100 (1.1%) were called active. Inconclusive means that the source gave no clear call. Such entries were picked first, then a sample of the others. Calls follow the shape of the dose curve; as a rule, active = well fitted inhibition curve with a large enough effect; inconclusive = small, poorly fitted or top-dose-only effect, or another doubt; inactive = no such curve, though single readings can be large or run the other way. Where the call is inconclusive, the potency comes from a doubtful curve fit. % is scaled to controls: 0 for no effect and ±100 for the full control effect; potency is read from the fitted curve at half-maximal effect."}
{"target": "Polyunsaturated fatty acid lipoxygenase ALOX12 (Homo sapiens) (UniProt P18054)", "test": "Primary qHTS assay for inhibitors of human arachidonate 12S-lipoxygenase (ALOX12): Round 2", "conditions": "purified 12hLO, xylenol orange hydroperoxide absorbance; activity change, negative = inhibition: at 108 µM (top of the series) unless noted", "how_it_was_run": "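Purified human 12hLO (150 nM final) in 25 mM Hepes, 0.01% Triton X-100, pH 7.0 was preincubated 15 min at room temperature with compound. Then 40 uM arachidonic acid was added, 30 min. Hydroperoxide was read by Fe-XO absorbance ratio 573/405 nm.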"}
{"smiles": "Cc1ccc(C(=O)COC(=O)c2ccccc2C(=O)c2ccc(-c3ccccc3)cc2)cc1", "Potency": "inconclusive: 112 µM [inhibitor, single point]"}
{"smiles": "O=c1[nH]c(C2CCN(S(=O)(=O)c3ccccc3)CC2)nc2c1nnn2Cc1ccccc1", "activity change, negative = inhibition": "inactive: -29.1%"}
{"smiles": "COc1ccc(NC(=O)Cn2nc(-c3ccccc3)c3cnc4ccc(C)cc4c32)cc1", "Potency": "inconclusive: 100 µM [inhibitor, partial curve, poor fit]"}
{"smiles": "Cc1ccc2nc(/C(C#N)=C/c3ccc(-c4ccc(Cl)cc4)o3)[nH]c2c1", "Potency": "inconclusive: 7.94 µM [inhibitor, full curve, poor fit]"}
{"smiles": "Cc1nc2ccn(Cc3ccco3)c(=O)c2cc1C(=O)Nc1ccc(F)cc1", "activity change, negative = inhibition": "inconclusive: -31.8% [inhibitor]"}
{"smiles": "CN(C)CC(O)c1ccc(C=Cc2ccc(Cl)cc2)cc1", "note": "(centres undefined)", "Potency": "inconclusive: 44.7 µM [inhibitor, partial curve, poor fit]"}
{"smiles": "O=C(CCNS(=O)(=O)c1ccc(F)cc1)N1CCN(c2ncccn2)CC1", "Potency": "inconclusive: 39.8 µM [inhibitor, partial curve, poor fit]"}
{"smiles": "O=C(CCc1ccccc1Cl)Nc1ccc(S(=O)(=O)Nc2nccs2)cc1", "Potency": "inconclusive: 39.8 µM [inhibitor, partial curve, poor fit]"}
{"smiles": "CC1CC(C)C(=O)C1=O", "note": "(centres undefined)", "Potency": "inconclusive: 126 µM [inhibitor, partial curve, poor fit]"}
{"smiles": "CNC(=O)[C@H]1O[C@H](n2cnc3c(NCc4cccc(I)c4)nc(Cl)nc32)[C@@H](O)[C@@H]1O", "Potency": "inconclusive: 35.5 µM [inhibitor, single point]"}
{"smiles": "COCC(C)n1c(C)cc(C(=O)COC(=O)c2n[nH]c3ccccc23)c1C", "note": "(centres undefined)", "Potency": "inconclusive: 112 µM [inhibitor, single point]"}
{"smiles": "CC1C(=O)N2CCCc3cc(S(=O)(=O)N(C)c4ccccc4)cc1c32", "note": "(centres undefined)", "Potency": "inconclusive: 7.94 µM [inhibitor, full curve, poor fit]"}
{"smiles": "Cc1nn(C)c(C(=O)Sc2cccc(Cl)c2)c1[N+](=O)[O-]", "Potency": "inconclusive: 44.7 µM [inhibitor, partial curve, poor fit]"}
{"smiles": "O=C(COc1ccc(Cl)cc1)Nc1cccc2cccnc12", "activity change, negative = inhibition": "inactive: 4.25%"}
{"smiles": "Fc1cccc(Cl)c1CNc1ccc(N2CCCC2)cc1", "Potency": "active: 31.6 µM"}
{"smiles": "O=C(COC(=O)c1ccc[nH]c1=O)NCC1CCCO1", "note": "(centres undefined)", "Potency": "inconclusive: 31.6 µM [inhibitor, single point]"}
{"smiles": "Cc1ccc(OCC(O)Cn2c(NCC(=O)O)nc3c2c(=O)n(C)c(=O)n3C)cc1", "note": "(centres undefined)", "Potency": "inconclusive: 0.112 µM [inhibitor, full curve, poor fit]"}
{"smiles": "CCC(=O)N[C@H]1C=C[C@H](CC(=O)OC)O[C@@H]1CO", "Potency": "inconclusive: 89.1 µM [inhibitor, single point]"}
{"smiles": "CCN1CCN(C(=O)C2CC(C)=C(C)CC2C(=O)O)CC1", "note": "(centres undefined)", "activity change, negative = inhibition": "inactive: 4.58%"}
{"smiles": "Oc1ccc(/C=N/Nc2ncnc3c2ncn3Cc2ccccc2)cc1O", "Potency": "inconclusive: 44.7 µM [inhibitor, partial curve]"}
{"smiles": "N#CCC(=N)N1CCN(c2ccc(Cl)cc2)CC1", "Potency": "inconclusive: 25.1 µM [inhibitor, partial curve, poor fit]"}
{"smiles": "CCN(CC)CCN1C(=O)C(O)=C(C(=O)c2cc3ccccc3o2)C1c1cccnc1", "note": "(centres undefined)", "activity change, negative = inhibition": "inactive: -28%"}
{"smiles": "COc1ccc(S(=O)(=O)N2CCc3c(c(-c4nnc(SC)n4C)nn3C)C2)cc1", "Potency": "inconclusive: 100 µM [inhibitor, partial curve, poor fit]"}
{"smiles": "CCOC(=O)COc1cc(Br)c(/C=N/Nc2ccccc2)cc1OC", "Potency": "inconclusive: 2.82 µM [inhibitor, full curve, poor fit]"}
{"smiles": "Cc1ccc(-c2nc(C(=O)N3CCN(c4ccccc4)CC3)c3n2CCCCC3)cc1", "activity change, negative = inhibition": "inactive: -15.3%"}
{"smiles": "CC(C)CCn1cnc2c1c(=O)[nH]c(=O)n2Cc1ccccc1", "Potency": "inconclusive: 50.1 µM [inhibitor, single point]"}
{"smiles": "O=C(O)c1cscn1", "Potency": "inconclusive: 3.55 µM [inhibitor, full curve, poor fit]"}
{"smiles": "COc1ccc(C2=NC(C(F)(F)F)(C(F)(F)F)N=C(N(C)C)O2)cc1", "activity change, negative = inhibition": "inactive: 9.05%"}
{"smiles": "CCOc1ccccc1Nc1nc(-c2sc(C)nc2C)cs1", "Potency": "inconclusive: 112 µM [inhibitor, partial curve, poor fit]"}
{"smiles": "CSc1ccc(S(=O)(=O)N2CCC(C(=O)Nc3ccc(C(N)=O)cc3)CC2)cc1", "Potency": "inconclusive: 44.7 µM [inhibitor, partial curve, poor fit]"}
{"smiles": "CCN(CC)c1ccc(NC(=O)c2ccccn2)cc1S(=O)(=O)Nc1ccccc1OC", "Potency": "inconclusive: 28.2 µM [inhibitor, partial curve, poor fit]"}
{"smiles": "O=C(NCC(c1cccs1)N1CCOCC1)c1cn(-c2ccccc2)nc1-c1ccccc1", "note": "(centres undefined)", "Potency": "inconclusive: 35.5 µM [inhibitor, partial curve, poor fit]"}
{"smiles": "O=C(Nc1ccc2c(c1)OCCO2)N1CCC(c2nc(C3CCOCC3)no2)CC1", "activity change, negative = inhibition": "inactive: 12.3%"}
{"smiles": "CCN(CC)CCCNC1CCS(=O)(=O)C1", "note": "(centres undefined)", "Potency": "inconclusive: 31.6 µM [inhibitor, partial curve, poor fit]"}
{"smiles": "Cc1nn(C)c2c1c(C(F)(F)F)cc(=O)n2C(C)C(=O)NCCC(C)C", "note": "(centres undefined)", "activity change, negative = inhibition": "inactive: -1.62%"}
{"smiles": "Cc1cc(C(=O)N2CCCC(C(=O)c3ccc4ccccc4c3)C2)nn1C", "note": "(centres undefined)", "activity change, negative = inhibition": "inactive: -16.7%"}
{"smiles": "COc1ccc(-n2nc(C(=O)NCC(=O)NCCCN3CC(C)CC(C)C3)c3ccccc3c2=O)cc1OC", "note": "(centres undefined)", "activity change, negative = inhibition": "inactive: -9.47%"}
{"smiles": "CCC1(N2CCN(S(=O)(=O)c3ccc4c(c3)CCCC4)CC2)CCN(C(=O)NC)C1", "note": "(centres undefined)", "Potency": "active: 31.6 µM"}
{"smiles": "O=[S+]([O-])(Nc1ccccc1)c1ccc2c(c1)OCCN(Cc1cccs1)C2", "Potency": "inconclusive: 31.6 µM [inhibitor, full curve]"}
{"smiles": "CN(C)/C=N/c1nc2nccc(-c3ccccc3)n2n1", "activity change, negative = inhibition": "inactive: 4.47%"}
{"smiles": "CC1CCN(C(=S)c2ccc(N(C)C)cc2)CC1", "Potency": "inconclusive: 63.1 µM [inhibitor, partial curve, poor fit]"}
{"smiles": "c1ccc(-c2cn(C[C@H]3CC[C@@H]([C@@H]4CC[C@H](Cn5cc(-c6ccccn6)nn5)O4)O3)nn2)nc1", "Potency": "inconclusive: 8.91 µM [inhibitor, full curve, poor fit]"}
{"smiles": "O=[N+]([O-])c1ccccc1S(=O)(=O)NC1CCCCCCC1", "activity change, negative = inhibition": "inactive: -14.1%"}
{"smiles": "CN(C)/C=N/C(=S)Nc1cc(Cl)cc(Cl)c1", "Potency": "inconclusive: 31.6 µM [inhibitor, partial curve, poor fit]"}
{"smiles": "O=C(Nc1cccnc1)C1(F)C(F)(F)C(F)(F)C(F)(F)C(F)(F)C1(F)F", "Potency": "inconclusive: 35.5 µM [inhibitor, partial curve, poor fit]"}
{"smiles": "O=C(NCC1CCCO1)c1nc2c(nnn2Cc2ccc(F)cc2)c(=O)[nH]1", "note": "(centres undefined)", "Potency": "inconclusive: 1.78 µM [inhibitor, full curve, poor fit]"}
{"smiles": "CC(C)C(=O)NNC(=O)c1ccc(F)cc1", "Potency": "inconclusive: 14.1 µM [inhibitor, partial curve, poor fit]"}
{"smiles": "CSCCC(=O)N1CC[C@@H](N2CCN(c3ccccc3F)CC2)[C@H](O)C1", "Potency": "inconclusive: 15.8 µM [inhibitor, partial curve]"}
{"smiles": "COCCn1c(SCC(=O)N2CCCC2)nnc1C(C)C", "activity change, negative = inhibition": "inactive: 0%"}
{"smiles": "O=C(CSc1nc2c(c(=O)n1-c1ccc(Br)cc1)SCC2)NCc1ccco1", "Potency": "inconclusive: 100 µM [inhibitor, partial curve, poor fit]"}
{"smiles": "COc1cccc(OCCNC(=O)CSc2ccc(C(F)(F)F)cc2[N+](=O)[O-])c1", "Potency": "inconclusive: 7.08 µM [inhibitor, full curve, poor fit]"}
{"smiles": "COc1ccc(NC(=O)Cn2cc(C(=O)c3ccncc3)c(=O)c3cc(C)ccc32)cc1Cl", "Potency": "inconclusive: 2 µM [inhibitor, full curve, poor fit]"}
{"smiles": "CC(COc1ccc(Cl)cc1)CN1CCC(C(O)(c2ccccc2)c2ccccc2)CC1", "note": "(centres undefined)", "Potency": "inconclusive: 44.7 µM [inhibitor, partial curve, poor fit]"}
{"smiles": "Cc1c(Cn2ccnc2-c2cc(C#CCO)cs2)oc2ccccc12", "activity change, negative = inhibition": "inactive: 89.2%"}
{"smiles": "CC1(C)CC(=O)C2=C(C1)NC1=C(C(=O)c3ccccc31)C2c1cc([N+](=O)[O-])ccc1O", "note": "(centres undefined)", "Potency": "inconclusive: 100 µM [inhibitor, single point]"}
{"smiles": "Cc1ccc(-c2nc(CCNc3ncccc3C#N)co2)cc1", "activity change, negative = inhibition": "inactive: 7.73%"}
{"smiles": "Cn1cc(-c2ccc(Cl)cc2)c2nc(CNc3ccccc3)cn2c1=O", "activity change, negative = inhibition": "inactive: -4.13% [at 176 µM]"}
{"smiles": "COc1ccc(/C=C2/C(=O)ON=C2C)cc1Br", "Potency": "inconclusive: 2.51 µM [inhibitor, full curve, poor fit]"}
{"smiles": "Cc1cc(C(F)(F)F)nn1Cc1n[nH]c(=S)n1-c1cccc(Cl)c1", "Potency": "inconclusive: 63.1 µM [inhibitor, partial curve, poor fit]"}
{"smiles": "CN(CC(=O)Nc1ccccc1Cl)C(=O)COC(=O)c1cc([N+](=O)[O-])ccc1N1CCOCC1", "Potency": "inconclusive: 112 µM [inhibitor, partial curve, poor fit]"}
{"smiles": "Cc1cc(S(=O)(=O)N2CCN(Cc3ccc4c(c3)OCO4)CC2)cc(C)c1N1CCCC1=O", "Potency": "inconclusive: 3.98 µM [inhibitor, full curve, poor fit]"}
{"smiles": "CN(C)CCCN(Cc1ccccc1)C(=S)Nc1cccc(C(F)(F)F)c1", "Potency": "inconclusive: 100 µM [inhibitor, partial curve, poor fit]"}
{"smiles": "CC1(Cc2cccc(F)c2)C(=O)Nc2ccc(S(=O)(=O)NC3CCCCC3)cc21", "note": "(centres undefined)", "activity change, negative = inhibition": "inactive: -5.65%"}
{"smiles": "Cc1cc(C)c(C)c(SC(C)C(=O)NC2CCCC2)c1C", "note": "(centres undefined)", "Potency": "inconclusive: 44.7 µM [inhibitor, partial curve, poor fit]"}
